# Assay results: patent US11247980B2, “Herbicidal uracilpyrid” (BASF SE, priority 2017, dated 2022)
# Some of these results come from one statement about several compounds together.
# Assays:
# Experiment in all cases: greenhouse experiments, herbicidal activity, post-emergence treatment
# Details in all cases: application rate of 16 g/ha, post-emergence method, scale from 0 to 100
# [1] = test system: AMARE; type: in vivo, Amaranthus retroflexus
# [2] = test system: CHEAL; type: in vivo, Chenopodium album
# From the text: The culture containers used were plastic flowerpots containing loamy sand with approximately 3.0% of humus as the substrate. The seeds of the test plants were sown separately for each species.
# For the pre-emergence treatment, the active ingredients, which had been suspended or emulsified in water, were applied directly after sowing by means of finely distributing nozzles. The containers were irrigated gently to promote germination and growth and subsequently covered with transparent plastic hoods until the plants had rooted. This cover caused uniform germination of the test plants, unless this had been impaired by the active ingredients. For the post-emergence treatment, the test plants were first grown to a height of 3 to 15 cm, depending on the plant habit, and only then treated with the active ingredients which had been suspended or emulsified in water. For this purpose, the test plants were either sown directly and grown in the same containers, or they were first grown separately as seedlings and transplanted into the test containers a few days prior to treatment.
# Depending on the species, the plants were kept at 10-25° C. or 20-35° C., respectively. The test period extended over 2 to 4 weeks. During this time, the plants were tended, and their response to the individual treatments was evaluated.
# Evaluation was carried out using a scale from 0 to 100. 100 means no emergence of the plants, or complete destruction of at least the aerial moieties, and 0 means no damage, or normal course of growth. A good herbicidal activity is given at values of at least 70 and a very good herbicidal activity is given at values of at least 85.
# The plants used in the greenhouse experiments were of the following species: […]
# [3] = test system: SETVI; type: in vivo, Setaria viridis
# [4] = test system: ECHCG; type: in vivo, Echinocloa crus-galli
structure (smiles),measurement,setting,value
COC(=O)C(OC)Oc1ccccc1Oc1nc(-n2c(=O)cc(C(F)(F)F)n(C)c2=O)ccc1Cl (racemic) [compound 18],herbicidal activity against AMARE,[1],very good herbicidal activity (a very good herbicidal activity is given at values of at least 85)
same,herbicidal activity against CHEAL,[2],very good herbicidal activity (a very good herbicidal activity is given at values of at least 85)
same,herbicidal activity against SETVI,[3],very good herbicidal activity (a very good herbicidal activity is given at values of at least 85)
CCOC(=O)C(OC)Oc1ccccc1Oc1nc(-n2c(=O)cc(C(F)(F)F)n(C)c2=O)c(F)cc1F (racemic) [compound 21],herbicidal activity against AMARE,[1],very good herbicidal activity (a very good herbicidal activity is given at values of at least 85)
same,herbicidal activity against ECHCG,[4],very good herbicidal activity (a very good herbicidal activity is given at values of at least 85)
same,herbicidal activity against CHEAL,[2],very good herbicidal activity (a very good herbicidal activity is given at values of at least 85)
same,herbicidal activity against SETVI,[3],very good herbicidal activity (a very good herbicidal activity is given at values of at least 85)
CCOC(=O)C(F)Oc1ccccc1Oc1nc(-n2c(=O)cc(C(F)(F)F)n(C)c2=O)c(F)cc1Cl (racemic) [compound 25],herbicidal activity against AMARE,[1],very good herbicidal activity (a very good herbicidal activity is given at values of at least 85)
same,herbicidal activity against ECHCG,[4],very good herbicidal activity (a very good herbicidal activity is given at values of at least 85)
same,herbicidal activity against CHEAL,[2],very good herbicidal activity (a very good herbicidal activity is given at values of at least 85)
same,herbicidal activity against SETVI,[3],very good herbicidal activity (a very good herbicidal activity is given at values of at least 85)
COC(=O)C(C)(F)Oc1ccccc1Oc1nc(-n2c(=O)cc(C(F)(F)F)n(C)c2=O)c(F)cc1Cl (racemic) [compound 26],herbicidal activity against AMARE,[1],very good herbicidal activity (a very good herbicidal activity is given at values of at least 85)
same,herbicidal activity against ECHCG,[4],very good herbicidal activity (a very good herbicidal activity is given at values of at least 85)
same,herbicidal activity against CHEAL,[2],very good herbicidal activity (a very good herbicidal activity is given at values of at least 85)
same,herbicidal activity against SETVI,[3],very good herbicidal activity (a very good herbicidal activity is given at values of at least 85)
"CCOC(=O)COc1ccccc1Oc1nc(-n2c(=O)cc(C(F)(F)F)n(C)c2=O)c(F)cc1Cl [compound 1, Ethyl 2-[2-[[3-chloro-5-fluoro-6-[3-methyl-2,6-dioxo-4-(trifluoromethyl)pyrimidin-1-yl]-2-pyridyl]oxy]phenoxy]acetate]",herbicidal activity against AMARE,[1],very good herbicidal activity (a very good herbicidal activity is given at values of at least 85)
same,herbicidal activity against ECHCG,[4],very good herbicidal activity (a very good herbicidal activity is given at values of at least 85)
same,herbicidal activity against CHEAL,[2],very good herbicidal activity (a very good herbicidal activity is given at values of at least 85)
same,herbicidal activity against SETVI,[3],very good herbicidal activity (a very good herbicidal activity is given at values of at least 85)
"COC(=O)C(OC)Oc1ccccc1Oc1nc(-n2c(=O)cc(C(F)(F)F)n(C)c2=O)c(F)cc1Cl (stereo not shown) [compound 2, Methyl 2-[2-[[3-chloro-5-fluoro-6-[3-methyl-2,6-dioxo-4-(trifluoromethyl)pyrimidin-1-yl]-2-pyridyl]oxy]phenoxy]-2-methoxy-acetate]",herbicidal activity against AMARE,[1],very good herbicidal activity (a very good herbicidal activity is given at values of at least 85)
same,herbicidal activity against ECHCG,[4],very good herbicidal activity (a very good herbicidal activity is given at values of at least 85)
same,herbicidal activity against CHEAL,[2],very good herbicidal activity (a very good herbicidal activity is given at values of at least 85)
same,herbicidal activity against SETVI,[3],very good herbicidal activity (a very good herbicidal activity is given at values of at least 85)
"Cn1c(C(F)(F)F)cc(=O)n(-c2nc(Oc3ccccc3OCC(=O)NS(C)(=O)=O)c(Cl)cc2F)c1=O [compound 4, 2-[2-[[3-chloro-5-fluoro-6-[3-methyl-2,6-dioxo-4-(trifluoromethyl)pyrimidin-1-yl]-2-pyridyl]oxy]phenoxy]-N-methylsulfonyl-acetamide]",herbicidal activity against AMARE,[1],very good herbicidal activity (a very good herbicidal activity is given at values of at least 85)
same,herbicidal activity against ECHCG,[4],very good herbicidal activity (a very good herbicidal activity is given at values of at least 85)
same,herbicidal activity against CHEAL,[2],very good herbicidal activity (a very good herbicidal activity is given at values of at least 85)
same,herbicidal activity against SETVI,[3],very good herbicidal activity (a very good herbicidal activity is given at values of at least 85)
"CCOC(=O)COc1ccccc1Oc1nc(-n2c(=O)cc(C(F)(F)F)n(C)c2=O)c(F)cc1F [compound 5, ethyl 2-[2-[[3,5-difluoro-6-[3-methyl-2,6-dioxo-4-(trifluoromethyl)pyrimidin-1-yl]-2-pyridyl]oxy]phenoxy]acetate]",herbicidal activity against AMARE,[1],very good herbicidal activity (a very good herbicidal activity is given at values of at least 85)
same,herbicidal activity against ECHCG,[4],very good herbicidal activity (a very good herbicidal activity is given at values of at least 85)
same,herbicidal activity against CHEAL,[2],very good herbicidal activity (a very good herbicidal activity is given at values of at least 85)
same,herbicidal activity against SETVI,[3],very good herbicidal activity (a very good herbicidal activity is given at values of at least 85)
"CCOC(=O)C(C)Oc1ncccc1Oc1nc(-n2c(=O)cc(C(F)(F)F)n(C)c2=O)c(F)cc1Cl (stereo not shown) [compound 6, Ethyl 2-[[3-[[3-chloro-5-fluoro-6-[3-methyl-2,6-dioxo-4-(trifluoromethyl)pyrimidin-1-yl]-2-pyridyl]oxy]-2-pyridyl]oxy]propanoate]",herbicidal activity against AMARE,[1],very good herbicidal activity (a very good herbicidal activity is given at values of at least 85)
same,herbicidal activity against ECHCG,[4],very good herbicidal activity (a very good herbicidal activity is given at values of at least 85)
same,herbicidal activity against CHEAL,[2],very good herbicidal activity (a very good herbicidal activity is given at values of at least 85)
same,herbicidal activity against SETVI,[3],very good herbicidal activity (a very good herbicidal activity is given at values of at least 85)
"CCOC(=O)COc1ncccc1Oc1nc(-n2c(=O)cc(C(F)(F)F)n(C)c2=O)c(F)cc1Cl [compound 7, Ethyl 2-[[3-[[3-chloro-5-fluoro-6-[3-methyl-2,6-dioxo-4-(trifluoromethyl)pyrimidin-1-yl]-2-pyridyl]oxy]-2-pyridyl]oxy]acetate]",herbicidal activity against AMARE,[1],very good herbicidal activity (a very good herbicidal activity is given at values of at least 85)
same,herbicidal activity against ECHCG,[4],very good herbicidal activity (a very good herbicidal activity is given at values of at least 85)
same,herbicidal activity against CHEAL,[2],very good herbicidal activity (a very good herbicidal activity is given at values of at least 85)
same,herbicidal activity against SETVI,[3],very good herbicidal activity (a very good herbicidal activity is given at values of at least 85)
Cn1c(C(F)(F)F)cc(=O)n(-c2ccc(Cl)c(Oc3ccccc3OCC(=O)O)n2)c1=O [compound 8],herbicidal activity against AMARE,[1],very good herbicidal activity (a very good herbicidal activity is given at values of at least 85)
same,herbicidal activity against ECHCG,[4],very good herbicidal activity (a very good herbicidal activity is given at values of at least 85)
same,herbicidal activity against CHEAL,[2],very good herbicidal activity (a very good herbicidal activity is given at values of at least 85)
same,herbicidal activity against SETVI,[3],very good herbicidal activity (a very good herbicidal activity is given at values of at least 85)
CN(C)C(=O)COc1ccccc1Oc1nc(-n2c(=O)cc(C(F)(F)F)n(C)c2=O)c(F)cc1Cl [compound 82],herbicidal activity against AMARE,[1],very good herbicidal activity (a very good herbicidal activity is given at values of at least 85)
same,herbicidal activity against CHEAL,[2],very good herbicidal activity (a very good herbicidal activity is given at values of at least 85)
same,herbicidal activity against SETVI,[3],very good herbicidal activity (a very good herbicidal activity is given at values of at least 85)
COC(=O)CCCNC(=O)COc1ccccc1Oc1nc(-n2c(=O)cc(C(F)(F)F)n(C)c2=O)c(F)cc1Cl [compound 87],herbicidal activity against AMARE,[1],very good herbicidal activity (a very good herbicidal activity is given at values of at least 85)
same,herbicidal activity against CHEAL,[2],very good herbicidal activity (a very good herbicidal activity is given at values of at least 85)
same,herbicidal activity against SETVI,[3],very good herbicidal activity (a very good herbicidal activity is given at values of at least 85)
CCOC(=O)COC(=O)COc1ncccc1Oc1nc(-n2c(=O)cc(C(F)(F)F)n(C)c2=O)c(F)cc1Cl [compound 155],herbicidal activity against AMARE,[1],very good herbicidal activity (a very good herbicidal activity is given at values of at least 85)
same,herbicidal activity against CHEAL,[2],very good herbicidal activity (a very good herbicidal activity is given at values of at least 85)
same,herbicidal activity against SETVI,[3],very good herbicidal activity (a very good herbicidal activity is given at values of at least 85)
